In PMC4081084 one finds binding data, which are given here for 1 molecule.

By UniProt entry, the sequences of proteins in these tests, tags left out.
UniProt P78347: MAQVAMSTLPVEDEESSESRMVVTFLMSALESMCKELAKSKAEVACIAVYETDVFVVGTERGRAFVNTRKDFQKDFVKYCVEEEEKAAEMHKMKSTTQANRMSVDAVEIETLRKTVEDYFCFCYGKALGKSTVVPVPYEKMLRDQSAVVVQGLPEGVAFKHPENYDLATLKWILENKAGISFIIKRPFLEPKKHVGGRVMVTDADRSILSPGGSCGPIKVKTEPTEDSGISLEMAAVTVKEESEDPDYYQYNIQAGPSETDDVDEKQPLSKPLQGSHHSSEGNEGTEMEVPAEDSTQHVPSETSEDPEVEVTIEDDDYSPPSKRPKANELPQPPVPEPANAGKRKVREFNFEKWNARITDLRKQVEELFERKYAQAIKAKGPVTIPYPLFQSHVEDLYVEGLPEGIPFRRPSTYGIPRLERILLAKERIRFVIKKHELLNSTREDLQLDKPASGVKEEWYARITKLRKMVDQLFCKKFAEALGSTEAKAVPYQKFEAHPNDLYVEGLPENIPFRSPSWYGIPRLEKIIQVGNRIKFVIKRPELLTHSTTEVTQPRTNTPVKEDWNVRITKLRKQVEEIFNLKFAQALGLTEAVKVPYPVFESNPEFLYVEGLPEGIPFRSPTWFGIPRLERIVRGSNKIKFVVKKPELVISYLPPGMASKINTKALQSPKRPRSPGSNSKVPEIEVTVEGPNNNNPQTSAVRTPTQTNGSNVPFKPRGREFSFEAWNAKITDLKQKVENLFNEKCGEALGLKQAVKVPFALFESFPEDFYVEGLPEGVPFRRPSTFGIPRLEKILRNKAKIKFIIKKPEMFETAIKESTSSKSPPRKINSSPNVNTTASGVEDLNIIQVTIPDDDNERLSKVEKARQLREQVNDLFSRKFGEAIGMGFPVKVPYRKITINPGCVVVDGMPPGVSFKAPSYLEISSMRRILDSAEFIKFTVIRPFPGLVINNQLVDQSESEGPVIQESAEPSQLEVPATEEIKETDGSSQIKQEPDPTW

Results are given in words; binding and its absence hold for the method and conditions named. Binding seen in cells or lysates may run through a third protein. Some results given as binding are weak or reduced against the parent protein; the word gives no strength.

For this experiment, the target named is TFII-I (endogenous, K562 nuclear extract) (human (endogenous in K562)) (UniProt P78347). The experiment can be described thus: co-IP; K562 nuclear extracts treated with benzonase, 125 mM KCl in HENG buffer, pre-cleared with IgG beads, antibody cross-linked to protein G magnetic beads, overnight at 4°C; washes with HENG plus 300 mM KCl; western blot; IP with TFII-I antibodies and reverse IP with antibodies against the partners.

B1: transcription elongation factor Elongin A (protein, UniProt Q14241 1-772)
chain: MAAESALQVVEKLQARLAANPDPKKLLKYLKKLSTLPITVDILAETGVGKTVNSLRKHEHVGSFARDLVAQWKKLVPVERNAEPDEQDFEKSNSRKRPRDALQKEEEMEGDYQETWKATGSRSYSPDHRQKKHRKLSELERPHKVSHGHERRDERKRCHRMSPTYSSDPESSDYGHVQSPPSCTSPHQMYVDHYRSLEEDQEPIVSHQKPGKGHSNAFQDRLGASQERHLGEPHGKGVVSQNKEHKSSHKDKRPVDAKSDEKASVVSREKSHKALSKEENRRPPSGDNAREKPPSSGVKKEKDREGSSLKKKCLPPSEAASDNHLKKPKHRDPEKAKLDKSKQGLDSFDTGKGAGDLLPKVKEKGSNNLKTPEGKVKTNLDRKSLGSLPKVEETDMEDEFEQPTMSFESYLSYDQPRKKKKKIVKTSATALGDKGLKKNDSKSTGKNLDSVQKLPKVNKTKSEKPAGADLAKLRKVPDVLPVLPDLPLPAIQANYRPLPSLELISSFQPKRKAFSSPQEEEEAGFTGRRMNSKMQVYSGSKCAYLPKMMTLHQQCIRVLKNNIDSIFEVGGVPYSVLEPVLERCTPDQLYRIEEYNHVLIEETDQLWKVHCHRDFKEERPEEYESWREMYLRLQDAREQRLRVLTKNIQFAHANKPKGRQAKMAFVNSVAKPPRDVRRRQEKFGTGGAAVPEKIKIKPAPYPMGSSHASASSISFNPSPEEPAYDGPSTSSAHLAPVVSSTVSYDPRKPTVKKIAPMMAKTIKAFKNRFSRR
Turning to B1, the binding entry is “binds”.
